Data source: PubChem BioAssay AID1259405 (NCATS, 2018)
Shown is one part, drawn at random, of about 50,000 deposited reagents. Over the whole deposit, about 4,000 (8%) were called active. 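Mouse siRNA library applied to hamster cells; one well for each siRNA.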 Entries without a mark were called inactive. Reagents against one gene are numbered here. Reagent sequences are not shown.

Aim: 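Mouse-designed siRNAs used to find CHO productivity engineering targets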 (primary screen)
Cell system: Chinese hamster CHO-K1 ovary cells with stable secreted eGFP expression
Reagent: single siRNA against mouse genes, 0.8 pmol siRNA per well (2 µl of 400 nM stock)
Time to read-out: 3 days
Measured: 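Per-well intracellular GFP measured by laser scanning cytometry, plus viability from ATP luminescence, each relative to plate median of non-targeting control wells, in %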
Scale: GFP, % of control: higher = more GFP per well, higher productivity; viability (ATP), % of control: higher = more viable cells (more ATP)
Active means: 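a knock-down is called active if GFP reaches 120% or more of non-targeting control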

gene knocked down	reagent	GFP, % of control	viability (ATP), % of control
G6pd2	1	83.1	65.4
G6pd2	2	64.2	77.2
G6pd2	3	23.3	30.7
Shmt1	1	98.8	57.1
Shmt1	2	63	31.6
Shmt1	3	68.6	56.5
Ptcd3	1	80	81.9
Ptcd3	2	62.4	40.7
Ptcd3	3	82.8	78.1
Thoc7	1	87.5	83.2
Thoc7	2	165 (active)	64.8
Thoc7	3	126 (active)	57.9
Edem1	1	78.8	87.6
Edem1	2	90.9	84.3
Edem1	3	94.7	49.5
Coro1b	1	92.6	80.7
Coro1b	2	63.2	78.6
Coro1b	3	59.3	77.7
Gjb3	1	132 (active)	53.1
Gjb3	2	68.5	57.5
Gjb3	3	67.3	57.2
Phldb2	1	56.9	55.8
Phldb2	2	50.1	90
Phldb2	3	84.2	37.1
Septin8	1	114	85.1
Septin8	2	102	112
Myl12a	1	138 (active)	73.4
Myl12a	2	118	103
Cts7	1	102	91.1
Cts7	2	71	66.7
Cts7	3	70.4	89
Diaph3	1	70.4	74.7
Diaph3	2	69.1	66.9
Diaph3	3	57.6	71.3

Hits, among the entries above:
gene knocked down	reagent	GFP, % of control	viability (ATP), % of control
Thoc7	2	165 (active)	64.8
Thoc7	3	126 (active)	57.9
Gjb3	1	132 (active)	53.1
Myl12a	1	138 (active)	73.4

The listing continues:
gene knocked down	reagent	GFP, % of control	viability (ATP), % of control
Epx	1	106	81.6
Epx	2	75.2	57.4
Epx	3	55.1	69.2
H2-Oa	1	39.1	49.7
H2-Oa	2	86.2	69.1
H2-Oa	3	70.8	77.7
Rbm28	1	107	78.4
Rbm28	2	90.4	87.6
Ccdc83	1	84.2	82.8
Ccdc83	2	56	98.6
Ccdc83	3	89	82
Rab3a	1	48.2	63.6
Rab3a	2	53.9	74.8
Misp	1	74.8	92.9
Misp	2	106	98.9
Misp	3	103	111
Psmb6	1	62.9	60.1
Psmb6	2	36.4	28.6
Psmb6	3	82.5	76
Eef1b2	1	61.7	80.2
Eef1b2	2	70.8	65.4
Eef1b2	3	87	86.7
Lasp1	1	86.2	95.9
Lasp1	2	59	66.6
Ceacam18	1	48.7	66
Ceacam18	2	54.1	65.4
Ceacam18	3	108	120
Zmynd15	1	46.1	50.3
Zmynd15	2	79.4	53.9
Zmynd15	3	103	80.1
Apof	1	99.4	67.5
Apof	2	65.3	65.9
Ms4a7	1	62.4	88.1
Ms4a7	2	183 (active)	106
Ms4a7	3	66.1	31.1
Ptges2	1	128 (active)	97.9
Ptges2	2	71.4	50.5
Ptges2	3	82.1	49.9
Slc6a1	1	79.4	63.5
Slc6a1	2	109	61.4
Slc6a1	3	104	65
Zfp108	1	61.2	76.3
Zfp108	2	63.6	75.4
Zfp108	3	150 (active)	72.1
Zfp108	4	96.7	99.5
Zfp108	5	87.4	84.2
Zfp108	6	92.8	100
Gpc3	1	75.8	69.9
Gpc3	2	119	52.4
Gpc3	3	118	68.3
